The source of these data is the supplement of paper PMC7125110.

B1: glmS ribozyme (parent)
chain: AUAAAAGCGCCAGAACUACAGAAAUGUAGUUGACGAGGAGGAGGUUUAUCGAAUUUUCGGCGGAUGCCUCCAAA

± gives the standard error. Many entries were measured with a wide error.

The term KM denotes the substrate concentration at which the rate is half of its maximum.

In the first series the parent is B1. The series can be described thus: KM; higher = weaker cofactor use; RNA array. The settings on record: with glucosamine-6-phosphate. The procedure, abridged: (§1)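 Glucosamine-6-phosphate (40 μM to 10 mM) in HEPES/KCl/Mg(OAc)2 buffer was flowed over sequenced MiSeq chips, and tiles were imaged over ~14 h. Barcoded ribozyme variants there had been transcribed in situ by E. coli RNA polymerase and were tracked through a hybridised Cy3 probe at 37 °C. One- or two-exponential decay fits to per-tile medians, normalised to baseline and to non-cleaving reference variants, gave kobs. kcat and KM came from weighted Michaelis–Menten fits across concentrations.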
In the case of AUAAAAGCGCCAGAAGUACAGAAAUGUAGUUGACGAGGAGGAGGUUUAUCGAAUGUUCGGCGGAUGCCUCCAAA [C16G U55G], the KM was determined as 1800 ± 1200 µM.

For AUAAAAGCGCCAGAAAUACAGAAAUGUAGUUAACGAGGAGGAGGUUUAUCGAAUUUUCGGCGGAUGCCUCCAAA [C16A G32A], the Michaelis-Menten constant (KM) worked out at 5210 ± 4500 µM.

Consider AUAAAAGCGCCAGAACUACAGAAAUGUAGGUGACGAGGAGGAGGUUUAUCGAAUUCUCGGCGGAUGCCUCCAAA [U30G U56C], for which the KM was 2090 ± 1100 µM.

For AUAAAAGCGCCAGAACUACAGAAAUGUAAUUGACGAGGAGGAGGUUUAUCGAAUUUUCGGCGGAUGACUCCAAA [G29A C67A], the Michaelis-Menten constant (KM) was found to be 1930 ± 1200 µM.

In the case of AUAAAAGCGCCAGAACUACAGAAAUGUAGUGGACGAGGAGGUGGUUUAUCGAAUUUUCGGCGGAUGCCUCCAAA [U31G A42U], the KM is 2480 ± 1800 µM.

In the case of AUAAAAGCGCCAGAACUACAGAAAUGUAGAUGACGAGGAGGAGGUUUAUCGAAUUUUCGGCGGAUGACUCCAAA [U30A C67A], the KM came to 2450 ± 1600 µM.

For AUAAAAGCGCCAGAUCUACAGAAAUGUAGUUGACGAGGAGGAGGUUUAUCGAAUUUUCGGCGGACGCCUCCAAA [A15U U65C], the KM was found to be 143 ± 97 µM.

For AUAAAAGCGCCAGAUCUACAGAAAUGUAGUUGACGAGGAGGAGGUUUAUCGAAUUUUCGGCGGAGGCCUCCAAA [A15U U65G], the Michaelis constant (KM) came out at 3770 ± 2000 µM.

On to AUAAAAGCGCCAGAACUACAGAAAUGUAGCUUACGAGGAGGAGGUUUAUCGAAUUUUCGGCGGAUGCCUCCAAA [U30C G32U], for which the KM is 3230 ± 1300 µM.

As for AUAAAAGCGCCAGAACUACAGAAAUGUAGCUGACGAGGAGGAGGUUUAUCGAACUUUCGGCGGAUGCCUCCAAA [U30C U54C], the KM is 1670 ± 1400 µM.

Consider AUAAAAGCGCCAGAAUUACAGAAAUGUAGUUGACGAGGAGGAGGUGUAUCGAAUUUUCGGCGGAUGCCUCCAAA [C16U U46G], for which the Michaelis constant (KM) amounted to 1810 ± 320 µM.

Take AUAAAAGCGCCAGAACUACAGAAAUGUACUUGACGAGGAGGAGGUUUAUCGAAUUUUCGGCGGAUGACUCCAAA [G29C C67A]: the KM came out at 822 ± 450 µM.

As to AUAAAAGCGCCAGAUCUACAGAAAUGUAGUUUACGAGGAGGAGGUUUAUCGAAUUUUCGGCGGAUGUCUCCAAA [A15U G32U C67U], the KM came to 11600 ± 5800 µM.

As for AUAAAAGCGCCAGAAAUACAGAAAUGUAGUUGACGAGGAGGAGGUUUAUCGAAUUUUCGGCGGAUGCCUCUAAA [C16A C71U], the KM is 509 ± 470 µM.

For AUAAAAGCGCCAGAACUACAGAAAUGUAGUCGACGAGGAGGAGGUUUAUCGAAUUUUCGGCGGGUGCCUCCAAA [U31C A64G], the Michaelis constant (KM) is 3920 ± 2100 µM.

Consider AUAAAAGCGCCAGAAAUACAGAAAUGUAGUUGACGAGGAGGAGGUUUAUCGAAUUUUCGGCGGAUACCUCCAAA [C16A G66A], for which the KM worked out at 4130 ± 370 µM.

For the variant AUAAAAGCGCCAGAAUUACAGAAAUGUAGUUGACGAGGAGGAGGUUUAUCGAAUUUUCGGCGGUUGCCUCCAAA [C16U A64U], the Michaelis-Menten constant (KM) worked out at 1510 ± 890 µM.

For the variant AUAAAAGCGCCAGAACUACAGAAAUGUAAUUGACGAGGAGGAGGUUUAUCGAAUUUUCGGCGGAUGCCUCGAAA [G29A C71G], the KM was found to be 833 ± 470 µM.

As to AUAAAAGCGCCAGAACUACAGAAAUGUAGUAGACGAGGAGGAGGUUUAUAGAAUUUUCGGCGGAUGCCUCCAAA [U31A C50A], the KM amounted to 605 ± 190 µM.

Regarding AUAAAAGCGCCAGAACUACAGAAAUGUACUUGUCGAGGAGGAGGUUUAUCGAAUUUUCGGCGGAUGCCUCCAAA [G29C A33U], the Michaelis constant (KM) amounted to 979 ± 140 µM.

Turning to AUAAAAGCGCCAGAACUACAGAAAUGUAGAUGACGAGGAGGAGGUUUAGCGAAUUUUCGGCGGAUGCCUUCAAA [U30A U49G C70U], the KM was 2220 ± 1600 µM.

As to AUAAAAGCGCCAGAAAUACAGAAAUGUAGUUGACGAGGAGGAGGUUUAUCGAUUUUUCGGCGGAUGCCUCCAAA [C16A A53U], the KM is 3690 ± 2400 µM.

As for AUAAAAGCGCCAGAAUUACAGAAAUGUAGUUGACGAGGAGGAGGUUUAUCGAAUUUGCGGCGGAUGCCUCCAAA [C16U U57G], the KM was 1380 ± 790 µM.

For the variant AUAAAAGCGCCAGAACUACAGAAAUGUAUUUGACGAGGAGGGGGUUUAUCGAAUUUUCGGCGGAUGCCUCCAAA [G29U A42G], the KM was 1770 ± 660 µM.

AUAAAAGCGCCAGAACUACAGAAAUGUAUUUGACGAGGAGGAGGUUUAUCGAAUUUUCGGCGGAUGACUCCAAA [G29U C67A]: the KM amounted to 812 ± 370 µM.

AUAAAAGCGCCAGAAGUACAGAAAUGUAGUUGACGAGGAGGAGGAUUAUCGAAUUUUCGGCGGAUGCCUCCAAA [C16G U45A]: the Michaelis-Menten constant (KM) was 2340 ± 1100 µM.

AUAAAAGCGCCAGAAGUACAGAAAUGUAGUUGACGAGGAGGAGGUUUAGCGAAUUUUCGGCGGAUGCCUCCAAA [C16G U49G]: the Michaelis constant (KM) worked out at 1510 ± 910 µM.

Turning to AUAAAAGCGCCAGAUCUACAGAAAUGUAGUUGACGAGGAGGAGAUUUAUCGAAUUUUCGGCGGAUGCCUCCAAA [A15U G44A], the Michaelis constant (KM) is 2790 ± 140 µM.

In another series the parent is B1. The experiment in a line: self-cleavage kobs at 640 uM GlcN6P; higher = faster cleavage; RNA array. The settings on record: with glucosamine-6-phosphate. The procedure, abridged:
as §1
Consider AUAAAAGCGCCAGAACUACAGAAAUGUAGUGGACGAGGAGGUGGUUUAUCGAAUUUUCGGCGGAUGCCUCCAAA [U31G A42U], for which the “self-cleavage kobs at 640 uM GlcN6P” value is 2.26e-05 ± 1.8e-05 s⁻¹.

Regarding AUAAAAGCGCCAGAAUUACAGAAAUGUAGUUGACGAGGAGGAGGUUUAUCGAAUUUUCGGCGGUUGCCUCCAAA [C16U A64U], the “self-cleavage kobs at 640 uM GlcN6P” value is 1.68e-05 ± 1.1e-05 s⁻¹.

Turning to AUAAAAGCGCCAGAACUACAGAAAUGUAGAUGACGAGGAGGAGGUUUAGCGAAUUUUCGGCGGAUGCCUUCAAA [U30A U49G C70U], the “self-cleavage kobs at 640 uM GlcN6P” value came to 1.87e-05 ± 1.4e-05 s⁻¹.

Variants of B1 are the subject of a further series. The experiment in a line: self-cleavage kobs at 40 uM GlcN6P; higher = faster cleavage; RNA array. Conditions: with glucosamine-6-phosphate. The procedure, abridged: as §1
For the variant AUAAAAGCGCCAGAACUACAGAAAUGUACUUGACGAGGAGGAGGUUUAUCGAAUUUUCGGCGGAUGACUCCAAA [G29C C67A], the “self-cleavage kobs at 40 uM GlcN6P” value was 1.37e-05 ± 1.3e-05 s⁻¹.

For AUAAAAGCGCCAGAACUACAGAAAUGUAAUUGACGAGGAGGAGGUUUAUCGAAUUUUCGGCGGAUGCCUCGAAA [G29A C71G], the “self-cleavage kobs at 40 uM GlcN6P” value was 2.03e-05 ± 1.5e-05 s⁻¹.

On to AUAAAAGCGCCAGAAAUACAGAAAUGUAGUUGACGAGGAGGAGGUUUAUCGAUUUUUCGGCGGAUGCCUCCAAA [C16A A53U], for which the “self-cleavage kobs at 40 uM GlcN6P” value turned out to be 1.9e-05 ± 1.7e-05 s⁻¹.

Variants of B1 are the subject of a further series. The series can be described thus: self-cleavage kobs at 160 uM GlcN6P; higher = faster cleavage; RNA array. Conditions: with glucosamine-6-phosphate. An outline of the steps:
as §1
As to AUAAAAGCGCCAGAACUACAGAAAUGUAAUUGACGAGGAGGAGGUUUAUCGAAUUUUCGGCGGAUGCCUCGAAA [G29A C71G], the “self-cleavage kobs at 160 uM GlcN6P” value amounted to 3e-05 ± 2.3e-05 s⁻¹.

Turning to AUAAAAGCGCCAGAACUACAGAAAUGUAGAUGACGAGGAGGAGGUUUAGCGAAUUUUCGGCGGAUGCCUUCAAA [U30A U49G C70U], the “self-cleavage kobs at 160 uM GlcN6P” value stood at 2.28e-05 ± 1.7e-05 s⁻¹.

In another series the parent is B1. The experiment in a line: self-cleavage kobs at 2500 uM GlcN6P; higher = faster cleavage; RNA array. Conditions: with glucosamine-6-phosphate. An outline of the steps: as §1
As for AUAAAAGCGCCAGAACUACAGAAAUGUAUUUGACGAGGAGGGGGUUUAUCGAAUUUUCGGCGGAUGCCUCCAAA [G29U A42G], the “self-cleavage kobs at 2500 uM GlcN6P” value came to 0.00236 ± 0.0014 s⁻¹.

As to AUAAAAGCGCCAGAUCUACAGAAAUGUAGUUGACGAGGAGGAGAUUUAUCGAAUUUUCGGCGGAUGCCUCCAAA [A15U G44A], the “self-cleavage kobs at 2500 uM GlcN6P” value came out at 1.75e-05 ± 1.6e-05 s⁻¹.
